# According to PMC12670160, “A drug-repurposing screen of FDA- and EMA-approved drugs identifies two NF-κB inhibitors active against eumycetoma” (Journal of Antimicrobial Chemotherapy, 2025):
# Counter-ions that a name gives are not always drawn. Screen size: about 5,300 compounds; about 130 (2.5%) showed an effect of 50% or more. The list shows a part of the results.
# Test system: M. mycetomatis strain mm55
# Conditions: primary screen, metabolic activity vs growth control; 96 h, 2 µM; inhibitor
row,Structure (SMILES),% viability [%]
1,"Cc1nc2c(O)cccc2c(=O)[nH]1 [ONC0001423, nu1025]",87.37
2,"CC(C)n1cnc2c(NCCc3ccc(O)cc3)nc(-c3csc4ccccc34)nc21 [ONC0005278, stemregenin 1]",128.8
3,"CN[C@H](CC(C)C)C(=O)N[C@H]1C(=O)N[C@@H](CC(N)=O)C(=O)N[C@H]2C(=O)N[C@H]3C(=O)N[C@H](C(=O)N[C@H](C(=O)O)c4cc(O)cc(O)c4-c4cc3ccc4O)[C@H](O[C@H]3C[C@](C)(N)[C@@H](O)[C@H](C)O3)c3ccc(c(Cl)c3)Oc3cc2cc(c3O[C@@H]2O[C@H](CO)[C@@H](O)[C@H](O)[C@H]2O[C@H]2C[C@](C)(NCc3ccc(-c4ccc(Cl)cc4)cc3)[C@@H](O)[C@H](C)O2)Oc2ccc(cc2Cl)[C@H]1O [ONC0002279, oritavancin diphosphate]",112.8
4,"c1cc(CN2CCCNCCNCCCNCC2)ccc1CN1CCCNCCNCCCNCC1 [ONC0001133, plerixafor]",52.62
5,"CN1CC[C@@H](c2c(O)cc(O)c3c(=O)cc(-c4ccccc4Cl)oc23)[C@@H]1CO [ONC0004480, p27600]",140.9
6,"O=C(NCCCNc1nc(Nc2cccc(NC(=O)N3CCCC3)c2)ncc1I)c1cccs1 [ONC0004591, bx795]",61.99
7,"CC1(C)Oc2ccc(C#N)cc2[C@@H](OC2=CC(=O)CC2)[C@@H]1O [ONC0003452, pco 400]",40.31
8,"NCCCCN [ONC0002141, putrescine]",100.9
9,"CN(Cc1ccc(C(C)(C)C)cc1)Cc1cccc2ccccc12 [ONC0004830, butenafine hcl]",82.04
10,"CN(C)CCOc1cc(-c2cn[nH]c2)ccc1NC(=O)C1COc2ccccc2O1 (centres unmarked) [ONC0001682, sr3677]",115.7
11,"Cc1ncccc1OC[C@@H]1CCCN1 [ONC0005536, pozanicline]",58.93
12,"C=C[C@@](C)(/C=C/c1ccc(O)cc1)CCC=C(C)C [ONC0002205, bakuchiol]",54.36
13,"CCCOc1ccc(Br)cc1-c1cc(-c2ccc(Cl)cc2)[nH]c1-c1ccncc1 [ONC0002613, l168049]",85.53
14,"Cc1ccccc1C(=O)Nc1ccc(C(=O)N2CCCC(N(C)C)c3ccccc32)cc1 (centres unmarked) [ONC0004579, mozavaptan]",82.99
15,"CCC(=O)c1ccc(OCC(O)CN2CCN(c3ccccc3)CC2)cc1 (centres unmarked) [ONC0003757, centpropazine]",103
16,"NS(=O)(=O)c1ccc(NC(=O)Nc2ccc(F)cc2)cc1 [ONC0000948, u104]",88.68
17,"CNC(=S)C1(c2ccccn2)CCCS1 (centres unmarked) [ONC0003719, picartamide]",105
18,"CC(=O)CC(c1ccc([N+](=O)[O-])cc1)c1c(O)c2ccccc2oc1=O (centres unmarked) [ONC0005289, acenocoumarin]",97.28
19,"CCCCCCCCNC(C)C(O)c1ccc(SC(C)C)cc1 (centres unmarked) [ONC0000631, suloctidil]",126.6

# Some of the entries so far, with bars between the fields.
row | Structure (SMILES) | % viability [%]
18 | CC(=O)CC(c1ccc([N+](=O)[O-])cc1)c1c(O)c2ccccc2oc1=O (centres unmarked) [ONC0005289, acenocoumarin] | 97.28
19 | CCCCCCCCNC(C)C(O)c1ccc(SC(C)C)cc1 (centres unmarked) [ONC0000631, suloctidil] | 126.6

# The list continues:

row,Structure (SMILES),% viability [%]
1,"C=C1C(=O)O[C@@H]2[C@H]3O[C@]3(C)CC/C=C(\C)CC[C@@H]12 [ONC0002950, parthenolidealternatestereo]",150.2
2,"O=C(O)c1cc([N+](=O)[O-])ccc1NCCCc1ccccc1 [ONC0001864, nppb]",86.87
3,"CC[C@H](C)[C@H](NC(=O)[C@H](Cc1ccc(O)cc1)NC(=O)[C@@H](NC(=O)[C@H](CCCNC(=N)N)NC(=O)[C@@H](N)CC(=O)O)C(C)C)C(=O)N[C@@H](Cc1c[nH]cn1)C(=O)N1CCC[C@H]1C(=O)O [ONC0002012, angiotensin 17]",92.07
4,"CONC(=N)c1ccc(-c2ccc(-c3ccc(C(=N)NOC)cc3)o2)cc1 [ONC0000712, pafuramidine]",88.84
5,"CN1C(C(=O)Nc2ccccn2)C(=O)c2ccccc2S1(=O)=O (centres unmarked) [ONC0000491, piroxicam]",59.07
6,"Cc1cc2c(OCC(CNC(C)(C)C)OC(=O)c3ccccc3)cccc2[nH]1 (centres unmarked) [ONC0002018, bopindolol malonate]",78.31
7,"Cc1ccc(Sc2ccccc2N2CCNCC2)c(C)c1 [ONC0005476, vortioxetine hydrobromide]",112.5
8,"COc1ccc(CN(CCN(C)C)c2ncccn2)cc1 [ONC0002843, thonzylamine hydrochloride]",113.4
9,"O=C(/C=C/c1cccc(F)c1)NC1CC1 [ONC0002298, cinflumide]",78.83
10,"CNCCC=C1c2ccccc2C=Cc2ccccc21 [ONC0002967, norcyclobenzaprine]",163.7
11,"NCC(=O)CCC(=O)O [ONC0004291, aminolevulinic acid hydrochloride]",48.43
12,"N[C@H](CSC(c1ccccc1)(c1ccccc1)c1ccccc1)C(=O)O [ONC0001742, strityllcysteine]",48.39
13,"C[C@H](NC(=O)CCc1nc2ccccc2c(=O)[nH]1)c1ccccc1 [ONC0001681, me0328]",86.28
14,"CC(C)[C@H](NS(=O)(=O)c1ccc(-c2ccc(Br)cc2)cc1)C(=O)O [ONC0003050, pd166793]",65.92
15,"CNC(=NCCSCc1csc(N=C(N)N)n1)NC#N [ONC0000218, tiotidine]",69.93
16,"CN1CCC(CNc2ccc3ncc(-c4cccc(OC(F)(F)F)c4)n3n2)CC1 [ONC0005001, sgi1776 free base]",77.23
17,"N#C/C(=C\c1cccn1S(=O)(=O)c1cccc([N+](=O)[O-])c1)S(=O)(=O)c1ccc(F)cc1 [ONC0001054, amz30]",89.83
18,"O=C(CCCN1CCC(O)(c2ccc(Cl)cc2)CC1)c1ccc(F)cc1 [ONC0000543, haloperidol]",91.04
19,"Nc1ncnc2c1ncn2C1O[C@H](COP(=O)(O)O)[C@@H](O)[C@H]1O (some centres unmarked) [ONC0003358, adenosine 5monophosphate]",77.31
